Mtb growth Cornell: 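Whole-cell assay for inhibitors of Mycobacterium tuberculosis growth, labelled Cornell in the record; the read-out is not stated. The concentration is filed as 10 mM, unlikely as a test dose, so the dose is not known. The record gives no direction; compounds strong in two other growth screens of this library score well above the rest, so higher reads as stronger inhibition. Of about 53,000 compounds tested this way, about 900 (1.7%) reached 50% or more in at least one test.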
Mtb heat-shock: 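Assay on Mycobacterium tuberculosis, filed only as a heat shock assay from Cornell; the read-out is not stated. The concentration is filed as 10 mM, unlikely as a test dose, so the dose is not known. Direction is inferred from retests: higher values go with stronger inhibition. Of about 69,000 compounds tested this way, about 930 (1.4%) reached 50% or more in at least one test.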

Results are given as percent effect.
How 0% and 100% were set is not recorded. Most values in the screen are low, and negative values occur.
Compounds were drawn at random from those tested, without regard to their results.
A dash means the value is not listed here; it may have been measured.

| SMILES | Mtb growth Cornell | Mtb heat-shock |
|---|---|---|
| `CCc1nnc2n1CCN(C(=O)c1cc3ccccc3[nH]1)C2` | -29.02 | -13.59 |
| `CCC(=O)c1ccc(OCC(=O)NCC2CCCO2)cc1` (stereo not shown) | 27.94 | -0.5421 |
| `Cc1nnc2n1CC(CNc1ncnc3ccccc13)CC2` (stereo not shown) | 2.586 | -42.95 |
| `O=C1OCCCN1Cc1nc(-c2ccc(N3CCCCC3)cc2)no1` | -1.566 | -8.889 |
| `COC(=O)CCCNC(=O)c1cc(COc2cncc(Cl)c2)on1` | - | 6.144 |
| `COc1cccc(CNCCc2cccc(C(N)=O)c2)c1` | -0.7714 | -25.6 |
| `CCNc1cc2c(nn1)CCN(C(=O)c1cc3nc(C)ccc3o1)C2` | - | -6.34 |
| `O=C1COC2(CCN(c3ccccn3)CC2)CN1Cc1ccccn1` | - | -11.37 |
| `O=C(O)C(F)(F)F.c1ccc(CN2CCOC3(COCCN(c4ncccn4)C3)C2)nc1` (stereo not shown) | 25.63 | -14.11 |
| `O=C(O)C(F)(F)F.[H][C@@]12CCN(CC3CCOCC3)[C@@]1([H])CCN2C(=O)c1ccc(C#N)cc1` | -11.07 | -36.11 |
| `CN(Cc1ccc(F)cc1)CC1(O)CCN(C(=O)c2cccs2)C1` (stereo not shown) | -44.56 | 19.75 |
| `Cc1ccccc1OCCN1CCCC(c2cc(C(N)=O)[nH]n2)C1` (stereo not shown) | 12.58 | -2.677 |
| `O=C(NCC(O)COc1cccc(F)c1)C1(c2ccc(F)cc2)CC1` (stereo not shown) | 16.44 | 17.5 |
| `COCCOc1ccc(S(=O)(=O)Nc2cccnc2O)cc1C` | -77.94 | 5.421 |
| `CCn1nc2c(cc1=O)CN(Cc1nnc(C3CC3)o1)CC2` | -24.46 | 23.61 |
| `[H][C@@]12C[C@H](C(=O)N3CCCC3)[C@@]([H])(CN(S(=O)(=O)CC(C)C)C1)O2` | 10.31 | 18.86 |
| `N#CC(NC(=O)c1cccc2c1OCCO2)c1ccc(F)cc1F` (stereo not shown) | - | -45.73 |
| `Cc1nn(C)c(Cl)c1C1CCCN1Cc1cn2ccsc2n1` (stereo not shown) | 0.982 | -3.06 |
| `Cc1ccc(C(=O)N(C)Cc2ccc(Br)s2)c(=O)[nH]1` | 23.96 | 15.98 |
| `O=C(O)C(F)(F)F.O=C(c1ccno1)N1CCc2ncnc(-c3ccncc3)c2CC1` | 6.354 | 1.058 |
| `NC(=O)C1CCN(CCc2ccc(NCc3ccsc3)cc2)CC1` | 14.05 | -25.06 |
| `[H][C@@]12OCCN(C(=O)COc3ccc(F)cc3)[C@@]1([H])CC[C@H]2OC` | 15.86 | -12 |
| `COc1ccc(-c2cnc3n2CCNC32CCN(S(C)(=O)=O)CC2)cc1` | 8.161 | -1.26 |
| `COc1ccc(Cl)cc1CNCCCn1ccnc1` | -23.01 | 13.48 |
| `Cc1cc(N(C)C)cc(C2CCN(S(=O)(=O)c3cccs3)C2)n1` (stereo not shown) | -24.91 | -28.18 |
| `COc1ccccc1NC(=O)C1(c2ccccc2)CCOCC1` | -18.65 | 8.445 |
| `Cc1nn(C)c2cn(C(C)C(=O)NCc3ccc(F)cc3)nc12` (stereo not shown) | - | 5.635 |
| `COc1ccc(NC(C)=O)c(N2CCN(C(C)=O)CC2)n1` | 12.02 | 8.23 |
| `COc1c(C2CCCN2Cc2cccc(C(N)=O)c2)c(C)nn1C` (stereo not shown) | - | -4.321 |
| `O=C(N[C@H]1COC[C@@H]1N1CCCC1)c1c[nH]nc1C1CCCCC1` | -11.79 | 69.58 |
| `COc1cccc2c(=O)n(C3CCCNC3)cnc12` (stereo not shown) | 5.625 | 0.8 |
| `COc1c(CNCCC(=O)NC2CCCC2)c(C(C)C)nn1C` | 12.39 | 3.685 |
| `Cc1ccccc1CN1CCC2(COCc3cnc(N(C)C)nc32)C1.O=C(O)C(F)(F)F` (stereo not shown) | 38.96 | -23.48 |
| `CS(=O)(=O)Cc1nc(CCc2ccccc2)nn1-c1ccccn1` | 33.64 | -22.34 |
| `CC(=O)N1CCC(NC(=O)CN2CCCc3c(F)ccc(C)c32)CC1` | -17.91 | 11.32 |
| `Cc1ccc(C(=O)NC2CCN(Cc3nc(CC(C)C)no3)CC2)s1` | -14.1 | -6.426 |
| `CC(C)c1ccc(C2(C(=O)NCCS(N)(=O)=O)CCC2)cc1` | - | -4.923 |
| `O=C(Cc1cccc(O)c1)N1CCCC(OCc2cccnc2)C1` (stereo not shown) | 15.4 | -3.225 |
| `COCCNC(=O)c1ccc2ccc(N3CCN(CC4CC4)CC3)n2c1` | -16.88 | -2.088 |
| `CCCN(CC1COc2ccccc2O1)C(=O)CCN1C(=O)CCC1=O` (stereo not shown) | 17.77 | 8.101 |
| `CCn1c(C2CCN(C(=O)c3cc(Cl)no3)CC2)nn(C)c1=O` | -42.29 | 4.057 |
| `CSc1ccc(CN(C(=O)c2cc[nH]n2)C2CC2)cc1` | 30.5 | -1.272 |
| `CCCn1cc(Cl)c(C(=O)N2C[C@@H](O)[C@H](NC(C)=O)C2)n1` | 10.06 | 1.577 |
| `COc1c(C2CCCN2Cc2noc(C)n2)c(C)nn1C` (stereo not shown) | -54.55 | -20.27 |
| `COc1ccccc1N1CCN(C(=O)Cn2nc(C)c(Cl)c2C)CC1` | 7.246 | 7.879 |
| `CC1(C(=O)N2CCN(c3ncccn3)CC2)CNCCO1` (stereo not shown) | -11.6 | -13.32 |
| `CCN(CC)c1ccc(C(=O)N2CCCC2Cn2cc(C)cn2)cn1` (stereo not shown) | - | 1.981 |
| `COc1ccc(C(=O)NCCNC(=O)c2cncnc2C)cc1` | -21.33 | 21.48 |
| `CC(C(=O)N(C)Cc1ccc(Br)o1)n1cccn1` (stereo not shown) | - | 18.34 |
| `CS(=O)(=O)N[C@H]1CCO[C@]2(CCN(CC3CCOCC3)C2)C1.O=C(O)C(F)(F)F` | 7.865 | -19.77 |
| `Cc1nc2ccccc2nc1CN1CCCC(Cn2cncn2)C1` (stereo not shown) | -19.93 | -0.2253 |
| `CC(C)Oc1cccc(C(=O)Nc2nncs2)c1` | -3.976 | -4.581 |
| `COc1ccnc(N2CCN(C(C)c3nc(C)no3)CC2)n1` (stereo not shown) | -4.357 | 3.908 |
| `CCN(CC1CCOC1)C(=O)c1ccc(N(C)C)cc1F` (stereo not shown) | - | -24 |
| `O=C(O)C(F)(F)F.[H][C@@]12CCCO[C@]1([H])[C@@H](OCC)CN2CC1CC1` | 11.84 | 9.158 |
| `Cc1ccc(F)c(S(=O)(=O)NCc2cccc(N3CCOC3=O)c2)c1` | - | -7.747 |
| `Cc1cnn(CC2CN(Cc3cccc(OC(C)C)c3)CCO2)c1` (stereo not shown) | 21.95 | -19.57 |
| `Cn1cc(NC(=O)c2cc[nH]n2)cc(Cl)c1=O` | 8.687 | -13.56 |
| `CC(C)c1ncc(CN2C[C@@H](CN3CCCC3)[C@@H](CO)C2)cn1` | - | -12.22 |
| `Cc1ccccc1CSc1nc(N)cc(N2CCOCC(CO)C2)n1` (stereo not shown) | - | -2.286 |
| `COC1CCN(C(=O)COC(C)=O)CC(=O)N(C)c2ccccc21` (stereo not shown) | 12.57 | 11.77 |
| `O=C(CN(CC(O)c1ccc(F)cc1)C1CC1)NC1CCOCC1` (stereo not shown) | 2.353 | -8.492 |
| `Cc1nc(-c2cc(C(=O)NCCN3CCOCC3)c3ccccn23)cs1.O=C(O)C(F)(F)F` | 15.49 | -23.77 |
| `CCOc1ccc(N2CCC(C(O)c3ccccc3)CC2)nn1` (stereo not shown) | -32.93 | 7.446 |
| `O=C(C1CCOCC1)N1CCc2ncnc(-c3ccc(F)cc3)c2CC1` | 19.26 | 7.614 |
| `c1cc(-c2ccc3c(c2)CCC32CCNCC2)ccn1` | -60.5 | -56.04 |
| `O=C(O)C(F)(F)F.O=C(O)C(F)(F)F.[H][C@@]12OCCN(Cc3nccs3)[C@@]1([H])CC[C@H]2Oc1ncccc1F` | 21.05 | -26.32 |
| `O=C(CSC1CCCC1)N1CCN(C(=O)C2CC2c2ccccc2)CC1` (stereo not shown) | 57.68 | -1.575 |
| `CS(=O)(=O)N1CCc2nc(NC(=O)Nc3c(F)cccc3F)sc2C1` | -4.489 | 7.249 |
| `O=C(c1cscn1)N(CCCO)S(=O)(=O)c1cccs1` | 23.68 | 5.305 |
| `CCNc1ccnc(-c2ccnc3c2ccn3C)n1` | 0.4009 | -47.38 |
| `CNc1nnc(CCn2nc(C)c(Br)c2C)s1` | 2.936 | -19.23 |
| `Cc1ccc(C(=O)NCCN2CCOCC2)cc1N(C)S(C)(=O)=O` | -0.07153 | -5.652 |

The last 4 entries again:

{"smiles": "O=C(c1cscn1)N(CCCO)S(=O)(=O)c1cccs1", "Mtb growth Cornell": 23.68, "Mtb heat-shock": 5.305}
{"smiles": "CCNc1ccnc(-c2ccnc3c2ccn3C)n1", "Mtb growth Cornell": 0.4009, "Mtb heat-shock": -47.38}
{"smiles": "CNc1nnc(CCn2nc(C)c(Br)c2C)s1", "Mtb growth Cornell": 2.936, "Mtb heat-shock": -19.23}
{"smiles": "Cc1ccc(C(=O)NCCN2CCOCC2)cc1N(C)S(C)(=O)=O", "Mtb growth Cornell": -0.07153, "Mtb heat-shock": -5.652}

Measurements from “University of Dundee, Small-Polar-MMV Screening Library” (2021), ChEMBL document CHEMBL3988442.